System: fascia fibroblasts
Experiment: Fascia invasion assay (ex vivo fascia 3D Matrigel culture)
Type: cell-based, mouse

Cc1cc(/C=C/c2ccc3cc(N(C)C)ccc3[n+]2C)c(C)n1-c1ccccc1 [Pyrvinium pamoate]
toxic effects to fascia tissues: toxic effects
